Results are given in words; binding and its absence hold for the method and conditions named. In cells and extracts the contact can be indirect. Some entries that bind do so weakly or less than the wild type. For some of these results: Where a sequence is shown, tags or fusion partners need not be part of it.
B1: endogenous NUP37 (protein, UniProt Q8NFH4 1-326)
chain: MKQDASRNAAYTVDCEDYVHVVEFNPFENGDSGNLIAYGGNNYVVIGTCTFQEEEADVEGIQYKTLRTFHHGVRVDGIAWSPETRLDSLPPVIKFCTSAADMKIRLFTSDLQDKNEYKVLEGHTDFINGLVFDPKEGQEIASVSDDHTCRIWNLEGVQTAHFVLHSPGMSVCWHPEETFKLMVAEKNGTIRFYDLLAQQAILSLESEQVPLMSAHWCLKNTFKVGAVAGNDWLIWDITRSSYPQNKRPVHMDRACLFRWSTISENLFATTGYPGKMASQFQIHHLGHPQPILMGSVAVGSGLSWHRTLPLCVIGGDHKLLFWVTEV
B2: myc-tagged NUP37 (protein, UniProt Q8NFH4 1-326)
chain: B1 chain

Experiments:
[1] = target: GST-YAP fusion protein (UniProt P46937); experiment: pull-down; GST pull-down using 7404 cell lysate and GST-YAP fusion protein; only the target purified
[2] = target: endogenously expressed YAP (human (endogenous in 7404 and PVTT)) (UniProt P46937); experiment: co-IP; endogenously expressed proteins in 7404 and PVTT cells
[3] = target: Flag-YAP (UniProt P46937); experiment: co-IP; immunoprecipitation of ectopically expressed Flag-YAP (or YAP del 174-203aa) and myc-NUP37 in 7404 cells
[4] = target: YAP mutant (del 174-203aa) (UniProt P46937); experiment: as above

| Binder | binding [1] | binding [2] | binding [3] | binding [4] |
| --- | --- | --- | --- | --- |
| B1 | binds | binds |  |  |
| B2 |  |  | binds | no binding |
